The assay has as its target TurboID conjugated with YAP, P46937. Kind of assay: proximity labelling; TurboID with mass spectrometry: MCF-7 cells stably expressing TurboID conjugated with VGLL3, YAP or TurboID-vector, 1 uM biotin for 10 min, lysis in RIPA buffer with sonication, streptavidin-conjugated magnetic beads, on-bead trypsin digestion. As to conditions: remark: other sources report otherwise.

No constants are given. Whether binding was seen depends on the method and setting. In cells and extracts the contact can be indirect. A yes stands for co-enrichment or nearness to the bait. Other partners may have been found.

B1: MED23, Q9ULK4 1-1368 (protein)
chain: METQLQSIFEEVVKTEVIEEAFPGMFMDTPEDEKTKLISCLGAFRQFWGGLSQESHEQCIQWIVKFIHGQHSPKRISFLYDCLAMAVETGLLPPRLVCESLINSDTLEWERTQLWALTFKLVRKIIGGVDYKGVRDLLKVILEKILTIPNTVSSAVVQQLLAAREVIAYILERNACLLPAYFAVTEIRKLYPEGKLPHWLLGNLVSDFVDTFRPTARINSICGRCSLLPVVNNSGAICNSWKLDPATLRFPLKGLLPYDKDLFEPQTALLRYVLEQPYSRDMVCNMLGLNKQHKQRCPVLEDQLVDLVVYAMERSETEEKFDDGGTSQLLWQHLSSQLIFFVLFQFASFPHMVLSLHQKLAGRGLIKGRDHLMWVLLQFISGSIQKNALADFLPVMKLFDLLYPEKEYIPVPDINKPQSTHAFAMTCIWIHLNRKAQNDNSKLQIPIPHSLRLHHEFLQQSLRNKSLQMNDYKIALLCNAYSTNSECFTLPMGALVETIYGNGIMRIPLPGTNCMASGSITPLPMNLLDSLTVHAKMSLIHSIATRVIKLAHAKSSVALAPALVETYSRLLVYMEIESLGIKGFISQLLPTVFKSHAWGILHTLLEMFSYRMHHIQPHYRVQLLSHLHTLAAVAQTNQNQLHLCVESTALRLITALGSSEVQPQFTRFLSDPKTVLSAESEELNRALILTLARATHVTDFFTGSDSIQGTWCKDILQTIMSFTPHNWASHTLSCFPGPLQAFFKQNNVPQESRFNLKKNVEEEYRKWKSMSNENDIITHFSMQGSPPLFLCLLWKMLLETDHINQIGYRVLERIGARALVAHVRTFADFLVYEFSTSAGGQQLNKCIEILNDMVWKYNIVTLDRLILCLAMRSHEGNEAQVCYFIIQLLLLKPNDFRNRVSDFVKENSPEHWLQNDWHTKHMNYHKKYPEKLYFEGLAEQVDPPVQIQSPYLPIYFGNVCLRFLPVFDIVIHRFLELLPVSKSLETLLDHLGGLYKFHDRPVTYLYNTLHYYEMHLRDRAFLKRKLVHAIIGSLKDNRPQGWCLSDTYLKCAMNAREENPWVPDDTYYCRLIGRLVDTMAGKSPGPFPNCDWRFNEFPNPAAHALHVTCVELMALAVSGKEVGNALLNVVLKSQPLVPRENITAWMNAIGLIITALPEPYWIVLHDRIVSVISSPSLTSETEWVGYPFRLFDFTACHQSYSEMSCSYTLALAHAVWHHSSIGQLSLIPKFLTEVLLPIVKTEFQLLYVYHLVGPFLQRFQQERTRCMIEIGVAFYDMLLNVDQCSTHLNYMDPICDFLYHMKYMFTGDSVKEQVEKIICNLKPALKLRLRFITHISKMEPAAVPPQAMNSGSPAPQSNQVPVSLPVTQ
For B1, the binding result is listed as “binds”.

The values above are taken from PMC8881512.
